This assay has as its target T1, GST-NCOA4 (UniProt Q5U4H9).
T1 sequence: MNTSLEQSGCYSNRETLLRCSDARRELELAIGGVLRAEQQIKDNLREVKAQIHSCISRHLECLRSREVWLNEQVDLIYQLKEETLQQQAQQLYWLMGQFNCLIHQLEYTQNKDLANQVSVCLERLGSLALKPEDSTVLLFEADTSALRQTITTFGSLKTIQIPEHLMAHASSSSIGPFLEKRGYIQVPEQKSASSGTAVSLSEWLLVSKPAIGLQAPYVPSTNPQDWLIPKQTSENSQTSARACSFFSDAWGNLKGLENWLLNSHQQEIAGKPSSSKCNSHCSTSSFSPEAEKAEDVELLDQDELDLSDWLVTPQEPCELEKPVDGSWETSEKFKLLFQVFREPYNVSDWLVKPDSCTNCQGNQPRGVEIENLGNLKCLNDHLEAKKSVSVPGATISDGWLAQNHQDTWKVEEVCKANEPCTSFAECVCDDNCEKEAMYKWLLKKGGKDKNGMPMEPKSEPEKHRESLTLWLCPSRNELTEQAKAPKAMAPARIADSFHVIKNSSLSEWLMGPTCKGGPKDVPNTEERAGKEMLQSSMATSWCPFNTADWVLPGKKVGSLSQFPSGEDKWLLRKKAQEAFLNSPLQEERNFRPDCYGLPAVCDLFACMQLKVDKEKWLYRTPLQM
Briefly: pull-down; purified GST-tagged bait and His-tagged prey with glutathione-sepharose beads; 50 mM Tris-HCl pH 7.5, 150 mM NaCl, 1 mM EDTA, 0.1% NP-40, 10% glycerol; 4 °C, 2 h; Western blot with anti-His and anti-GST; both purified. Background: In western blotting, separated proteins are transferred to a membrane and probed.

No constants are given. Whether binding was seen depends on the method and setting. Some binding calls cover weakened binding; strength is not graded here. Where a sequence is shown, tags or fusion partners need not be part of it.

This note sets out measurements from PMC12694305.

B1: His-FTMT (protein, UniProt Q9D5H4 50-237)
chain: ASVASSQDSTRPSRVRQNFHPDSEAAINRQINLELYASYVYLSMAYYFSRDDVALYNFSKYFLRQSLEEREHAEKLMKLQNQRGGRICLQDIKKPDKDDWECGLRAMECALLLEKNVNQSLLDLHTLASEKGDPHLCDFLETHYLHEQVKSIKELGDHVHNLVTMGAPAAGLAEYLFDKHTLGSESKH
In the case of B1, the binding entry is given as “binds”.
